Measured values: patent US9957270B2, “Fused pyrimidine-based hydroxamate derivatives” (Agency for Science, Technology and Research, priority 2014, dated 2018)
For at least one compound, name, drawing or mass did not settle the structure.

Target: HDAC (HeLa nuclear extracts)
Assay: HDAC enzyme assay, HeLa nuclear extracts
Conditions: read-out: In Vitro Enzymatic IC50 HDAC (HeLa)

## CC(C)n1cnc2c(-c3cnc(N)nc3)nc(N3CCC(C(=O)NO)CC3)nc21 [compound 39, 1-(6-(2-aminopyrimidin-5-yl)-9-isopropyl-9H-purin-2-yl)-N hydroxypiperidine-4-carboxamide]
  IC50: 0.01 to 0.1 µM
